Data as given in article PMC8221158, “Novel pyrrolizines bearing 3,4,5-trimethoxyphenyl moiety: design, synthesis, molecular docking, and biological evaluation as potential multi-target cytotoxic agents” (Journal of Enzyme Inhibition and Medicinal Chemistry, 2021).

Legend:
[1] = system: MCF-7, HCT116, and A2780 cancer cell lines; experiment: MTT assay, three cancer cell lines taken together (average, overall range); format: cell-based; conditions: Homo sapiens; MCF-7, HCT116, A2780; read-out: Average of the three IC50 values against the three cancer cell lines
Experimental: MCF-7 (human breast adenocarcinoma), A2780 (human ovarian cancer) and HCT116 (human colorectal carcinoma), and MRC-5 (normal foetal lung fibroblast) cell lines were bought from the ATCC and were cultured in flasks which were incubated at 37 °C in an atmosphere of 5% CO2, 95% air, and 100% relative humidity, to maintain continuous logarithmic growth. MCF-7, A2780, and HCT116 were maintained in RPMI-1640 media (100 U/mL penicillin, 100 µg/mL streptomycin, and 10% foetal bovine serum, Gibco, Carlsbad, CA). MRC-5 cells were maintained in EMEM (100 U/mL penicillin, 100 µg/mL streptomycin, and 10% foetal bovine serum, Gibco, Carlsbad, CA). […] Cells were used within 10–20 passages and were checked for mycoplasma every 6 months, by measuring the bioluminescence (Myco Alert sample detection kit; Lonza, Basel, Switzerland) using the multiplate reader (Synergy HT, BioTek, Winooski, VT).
The MTT assay was used to measure the cytotoxicity and growth inhibitory activities and cytotoxicity of the new compounds according to our previous report[13]^,[17]. […] Cytotoxicity of the new compounds was calculated after treatment of cancer/normal cell lines for 72 h. The absorbance of the reduced MTT was determined using a microplate reader A570 nm.
The cytotoxic activity of the new compounds (15a–e, 16a–e, 20, and 21) was evaluated in vitro using MTT assay. […]

[2] = system: MCF-7; conditions: read-out: IC50 (µM ± SD) MCF-7; cited from earlier work
[3] = system: A2780; conditions: read-out: IC50 (µM ± SD) A2780; cited from earlier work
[4] = system: HCT116; conditions: read-out: IC50 (µM ± SD) HCT116; cited from earlier work

COc1cc2c(c(OC)c1OC)-c1ccc(OC)c(=O)cc1[C@@H](NC(C)=O)CC2 [Colchicine]
IC50 [1]: 0.026 µM
IC50 [2]: 0.012 ± 0.007 µM
IC50 [3]: 0.015 ± 0.002 µM
IC50 [4]: 0.05 ± 0.005 µM
